Experimental data from publication PMC6882211.
Results are given in words; binding and its absence hold for the method and conditions named. In cells and extracts the contact can be indirect. Some results given as binding are weak or reduced against the parent protein; the word gives no strength. Tags and fused reporters may be left off the sequences shown.

Biological target: T1, pTAC10-HA (Arabidopsis thaliana) (UniProt F4JF21)
T1 sequence: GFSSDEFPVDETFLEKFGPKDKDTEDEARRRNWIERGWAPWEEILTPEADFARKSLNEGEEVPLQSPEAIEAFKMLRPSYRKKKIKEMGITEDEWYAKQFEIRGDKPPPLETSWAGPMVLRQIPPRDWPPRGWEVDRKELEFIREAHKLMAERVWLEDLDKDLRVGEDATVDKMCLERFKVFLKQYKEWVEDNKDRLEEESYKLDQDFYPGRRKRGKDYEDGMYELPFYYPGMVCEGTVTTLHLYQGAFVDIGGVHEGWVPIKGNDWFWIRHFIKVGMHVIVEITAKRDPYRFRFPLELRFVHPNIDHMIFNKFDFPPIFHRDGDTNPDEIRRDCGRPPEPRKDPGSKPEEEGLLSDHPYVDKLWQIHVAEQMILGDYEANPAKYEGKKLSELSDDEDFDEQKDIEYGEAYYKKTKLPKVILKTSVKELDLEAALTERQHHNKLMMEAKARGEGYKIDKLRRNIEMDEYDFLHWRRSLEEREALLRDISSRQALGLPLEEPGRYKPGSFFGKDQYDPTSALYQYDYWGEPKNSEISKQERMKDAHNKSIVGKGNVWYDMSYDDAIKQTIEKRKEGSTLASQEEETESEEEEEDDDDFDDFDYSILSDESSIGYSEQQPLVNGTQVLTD
Assay: co-IP; protoplasts from 35S::FSD3-GFP or 35S::FSD3S-GFP plants transformed with 35S::pTAC10-HA; HA antibody precipitates, GFP antibody detects; as in Chang et al. (2017) with slight modification

B1: FSD3-GFP (protein, UniProt Q9FMX0 42-263)
chain: GGLKVEAYYGLKTPPYPLDALEPYMSRRTLEVHWGKHHRGYVDNLNKQLGKDDRLYGYTMEELIKATYNNGNPLPEFNNAAQVYNHDFFWESMQPGGGDTPQKGVLEQIDKDFGSFTNFREKFTNAALTQFGSGWVWLVLKREERRLEVVKTSNAINPLVWDDIPIICVDVWEHSYYLDYKNDRAKYINTFLNHLVSWNAAMSRMARAEAFVNLGEPNIPIA
binding: binds
